Measurements reported in patent publication US20120220553A1, “THE USE OF LPA FOR ENCOURAGING PREGNANCY, AND FERTILITY AGENT” (JCR Pharmaceuticals Co., Ltd., priority 2009, published 2012).

Test: Quantitative determination of lysophosphatidic acids in embryo culture supernatant by GC-SIM
Parameters: species or system human
Details: pooled remaining culture supernatant of embryos of 45 patients; quantified against LPA-C18:1 standard; not detected in blank medium
Protocol: Of the culture supernatant of embryos of 45 patients who had received SEET therapy, remaining portions unused in the SEET therapy, were pooled and subjected for analysis. The volume of the remaining supernatant pooled was about 2.6 mL.
LPA contained in the culture was extracted by Bligh-Dyer method. Namely, to 2.59 mL of an embryo culture were added 0.5 mL of purified water, 2.5 mL of methanol, and 1.25 mL of chloroform, and the mixture was gently stirred for about 10 seconds, to which were further added 1.0 mL of 0.5 M HCl (prepared using saturated saline) and 2.5 mL of chloroform, and after stirring for one minute, the mixture was centrifuged (10 min, 3000 rpm, 4° C.) into separate layers, of which the lower, chloroform layer was collected. To the water layer was added 2.5 mL of chloroform, and after stirring and centrifugation in the above-described manner, the lower, chloroform layer was collected. These chloroform layers collected were combined and the solvent was removed under nitrogen gas flow. Unused BlastAssist System medium 2 was treated in the same manner as a blank.
To the residue which remained after removal of the solvent were added pyridine and BSTFA [N,O-bis(trimethylsilyl)trifluoroacetamide solution containing 1% chlorotrimethylsilane], 25 pL each, to suspend the residue, and reaction was allowed at 70° C. for one hour. The reaction mixture was subjected to GC-SIM analysis and GC-MS(Scan).
Separately, LPA-C18: 1 [oleyl-L-a-lysophosphatidic acid sodium salt (Sigma-Aldrich)] was dissolved in methanol at a concentration of 1 mg/mL to prepare a standard solution. The standard solution was diluted with unused BlastAssist System 2 (blank solution) as needed and extracted by Bligh-Dyer method, and then, after addition of pyridine and BSTFA, 25 μL each, to form a suspension, reaction was allowed at 70° C. for one hour, and then the reaction mixture was subjected to GC-SIM analysis and GS-MS(Scan) to determine the detection limit value and produce a standard curve for quantitative determination of LPA.
GC-SIM analysis was carried out using JMS-700V (JEOL Ltd.), a mass spectroscope (MS apparatus), and HP-6890 (Agilent Technologies Inc.), a gas chromatography apparatus (GC apparatus). The GC column employed was SPB-1 (SUPELCO). The column was kept at 150° C. for 1 minute, and the temperature was raised to 300° C. linearly at the rate of 10° C./min, and was kept at 300° C. for 25 minutes. Helium, a carrier gas, was supplied to the column at a linear velocity of 30 cm/sec. The temperature of the injection port was set at 250° C., and 1 μL of a sample was injected (Splitless injection). The sample was ionized by the electron impact (EI) method under the condition in which the temperature of the ionization chamber was set at 250° C., the ionization voltage at 70 eV, and the ionization current at 100 pA. The detector of the MS apparatus was the double-focusing type (BE type) and the acceleration voltage was 10 kV.
The concentration of each lysophosphatidic acid was measured based on the ratio of the area of the detected peak obtained by the analysis of the sample to that of the detected peak obtained by the analysis of the standard solution containing a known amount of LPA-C18:1. […]

SMILES | Concentration of lysophosphatidic acids contained in the sample
CCCCCC/C=C\CCCCCCCC(=O)OC[C@@H](O)COP(=O)(O)O [LPA-C16:1] | 0.2 nmol/mL
CCCCCCCCCCCCCCCC(=O)OC[C@@H](O)COP(=O)(O)O [LPA-C16:0] | 7.0 nmol/mL
CCCCCCCCCCCCCCCCCC(=O)OC[C@@H](O)COP(=O)(O)O [LPA-C18:0] | 1.0 nmol/mL
CCCCC/C=C\C/C=C\CCCCCCCC(=O)OC[C@@H](O)COP(=O)(O)O [LPA-C18:2] | 2.9 nmol/mL
CCCCCCCC/C=C\CCCCCCCC(=O)OC[C@@H](O)COP(=O)(O)O [LPA-C18:1, oleyl-L-a-lysophosphatidic acid sodium salt] | 2.6 nmol/mL

Where a name gives a salt, the structure may show the parent alone.
